Measured values: US7482367B2, “Substituted benzimidazoles and methods of their use” (Novartis Vaccines and Diagnostics, Inc., priority 2005, dated 2009)
Some entries share one result that the patent states for a list of compounds.

Biological target: raf kinase
Test: Raf/Mek Filtration Assay or Biotinylated Raf Screen
Format: biochemical, human
Details: procedures of Examples 76 or 77; read-out: raf kinase inhibitory activity IC50

Cn1c(Nc2cccc(C(F)(F)F)c2)nc2cc(Oc3ccnc(-c4nc(-c5ccccc5)c(C(F)(F)F)[nH]4)c3)ccc21 [Example 33, {1-Methyl-5-[2-(4-phenyl-5-tri-fluoromethyl-1H-imidazol-2-yl)-pyridin-4-yloxy]-1H-benzo-imidazol-2-yl}-(3-trifluoromethyl-phenyl)-amine]
IC50: < 5 µM
